Laboratory results taken from the supplement of paper PMC8728848.
The list shows a part of the results.

How the values were obtained:
Assay in all cases: glycan array binding signal (z-score within array); higher = stronger binding
Settings in all cases: glycan notation: IUPAC condensed, linker removed
[1] = molecular target: Neu5Ac(a2-6)Gal(b1-4)GlcNAc(b1-3)Gal(b1-4)GlcNAc(b1-3)GalNAc
Method in brief: (§1)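 Glycan array data were curated from 3228 arrays in the Consortium for Functional Glycomics database and kept only where the protein sequence was available. Glycan names were converted to IUPAC-condensed notation, and columns mapping to the same glycan were averaged. The binding signal is a within-array Z-score, averaged across arrays of the same protein sequence at different concentrations or buffers and across linkers. Negative Z-scores can be read as non-binding.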

[2] = molecular target: Neu5Ac(a2-6)Gal(b1-4)GlcNAc(b1-3)Gal(b1-4)GlcNAc(b1-3)[Neu5Ac(a2-6)Gal(b1-4)GlcNAc(b1-3)Gal(b1-4)GlcNAc(b1-6)]GalNAc
Method in brief: as §1

[3] = molecular target: Neu5Ac(a2-6)Gal(b1-4)GlcNAc(b1-3)Gal(b1-4)GlcNAc(b1-6)[Gal(b1-3)]GalNAc
Method in brief: as §1

[4] = molecular target: Neu5Ac(a2-6)Gal(b1-4)GlcNAc(b1-3)Gal(b1-4)[Fuc(a1-3)]GlcNAc(b1-3)Gal(b1-4)[Fuc(a1-3)]GlcNAc
Method in brief: as §1

[5] = molecular target: Neu5Ac(a2-6)Gal(b1-4)GlcNAc(b1-3)GalNAc
Method in brief: as §1

[6] = molecular target: Neu5Ac(a2-6)Gal(b1-4)GlcNAc(b1-3)[Neu5Ac(a2-6)Gal(b1-4)GlcNAc(b1-6)]GalNAc
Method in brief: as §1

[7] = molecular target: Neu5Ac(a2-6)Gal(b1-4)GlcNAc(b1-6)GalNAc
Method in brief: as §1

[8] = molecular target: Neu5Ac(a2-6)Gal(b1-4)GlcNAc(b1-6)[Gal(b1-3)GlcNAc(b1-3)]Gal(b1-4)Glc
Method in brief: as §1

[9] = molecular target: Neu5Ac(a2-6)Gal(b1-4)GlcNAc(b1-6)[Gal(b1-3)]GalNAc
Method in brief: as §1

[10] = molecular target: Neu5Ac(a2-6)Gal(b1-4)GlcNAc6S
Method in brief: as §1

Neu5Ac(a2-6)GalNAc = molecular target: Neu5Ac(a2-6)GalNAc
Method in brief: as §1

[11] = molecular target: Neu5Ac(a2-6)GalNAc(b1-4)GlcNAc
Method in brief: as §1

[12] = molecular target: Neu5Ac(a2-6)GalNAc(b1-4)GlcNAc6S
Method in brief: as §1

[13] = molecular target: Neu5Ac(a2-6)GlcNAc(b1-4)GlcNAc
Method in brief: as §1

[14] = molecular target: Neu5Ac(a2-6)GlcNAc(b1-4)GlcNAc(b1-4)GlcNAc
Method in brief: as §1

Neu5Ac(a2-8)Neu5Ac = molecular target: Neu5Ac(a2-8)Neu5Ac
Method in brief: as §1

[15] = molecular target: Neu5Ac(a2-8)Neu5Ac(a2-3)Gal(b1-3)GalNAc(b1-4)[Neu5Ac(a2-3)]Gal(b1-4)Glc
Method in brief: as §1

[16] = molecular target: Neu5Ac(a2-8)Neu5Ac(a2-3)Gal(b1-3)GalNAc(b1-4)[Neu5Ac(a2-8)Neu5Ac(a2-3)]Gal(b1-4)Glc
Method in brief: as §1

[17] = molecular target: Neu5Ac(a2-8)Neu5Ac(a2-3)Gal(b1-4)Glc
Method in brief: as §1

[18] = molecular target: Neu5Ac(a2-8)Neu5Ac(a2-3)Gal(b1-4)GlcNAc
Method in brief: as §1

[19] = molecular target: Neu5Ac(a2-8)Neu5Ac(a2-3)[Gal(b1-3)GalNAc(b1-4)]Gal(b1-4)Glc
Method in brief: as §1

[20] = molecular target: Neu5Ac(a2-8)Neu5Ac(a2-3)[GalNAc(b1-4)]Gal(b1-4)Glc
Method in brief: as §1

[21] = molecular target: Neu5Ac(a2-8)Neu5Ac(a2-8)Neu5Ac
Method in brief: as §1

[22] = molecular target: Neu5Ac(a2-8)Neu5Ac(a2-8)Neu5Ac(a2-3)Gal(b1-4)Glc
Method in brief: as §1

[23] = molecular target: Neu5Ac(a2-8)Neu5Ac(a2-8)Neu5Ac(a2-3)[Gal(b1-3)GalNAc(b1-4)]Gal(b1-4)Glc
Method in brief: as §1

[24] = molecular target: Neu5Ac(a2-8)Neu5Ac(a2-8)Neu5Ac(a2-3)[GalNAc(b1-4)]Gal(b1-4)Glc
Method in brief: as §1

[25] = molecular target: Neu5Ac(a2-8)Neu5Ac(a2-8)Neu5Ac(a2-8)Neu5Ac(a2-3)[GalNAc(b1-4)]Gal(b1-4)Glc
Method in brief: as §1

[26] = molecular target: Neu5Ac(a2-8)Neu5Gc(a2-3)Gal(b1-4)GlcNAc
Method in brief: as §1

[27] = molecular target: Neu5Ac(b2-6)Gal(b1-4)GlcNAc
Method in brief: as §1

Neu5Ac(b2-6)GalNAc = molecular target: Neu5Ac(b2-6)GalNAc
Method in brief: as §1

[28] = molecular target: Neu5Ac9Ac(a2-3)Gal(b1-4)GlcNAc
Method in brief: as §1

[29] = molecular target: Neu5Ac9Ac(a2-6)Gal(b1-4)GlcNAc
Method in brief: as §1

[30] = molecular target: Neu5Gc(a2-3)Gal(b1-3)GlcNAc
Method in brief: as §1

[31] = molecular target: Neu5Gc(a2-3)Gal(b1-3)[Fuc(a1-4)]GlcNAc
Method in brief: as §1

Neu5Gc(a2-3)Gal(b1-4)Glc = molecular target: Neu5Gc(a2-3)Gal(b1-4)Glc
Method in brief: as §1

[32] = molecular target: Neu5Gc(a2-3)Gal(b1-4)GlcNAc
Method in brief: as §1

[33] = molecular target: Neu5Gc(a2-3)Gal(b1-4)GlcNAc(b1-3)Gal(b1-4)GlcNAc(b1-2)Man(a1-3)[Neu5Gc(a2-3)Gal(b1-4)GlcNAc(b1-3)Gal(b1-4)GlcNAc(b1-2)Man(a1-6)]Man(b1-4)GlcNAc(b1-4)GlcNAc
Method in brief: as §1

[34] = molecular target: Neu5Gc(a2-3)Gal(b1-4)[Fuc(a1-3)]GlcNAc
Method in brief: as §1

[35] = molecular target: Neu5Gc(a2-6)Gal(b1-4)GlcNAc
Method in brief: as §1

Neu5Gc(a2-6)GalNAc = molecular target: Neu5Gc(a2-6)GalNAc
Method in brief: as §1

[36] = molecular target: Neu5Gc(a2-8)Neu5Ac(a2-3)Gal(b1-4)GlcNAc
Method in brief: as §1

[37] = molecular target: Neu5Gc(a2-8)Neu5Gc(a2-3)Gal(b1-4)GlcNAc
Method in brief: as §1

[38] = molecular target: Neu5Gc(a2-8)Neu5Gc(a2-3)Gal(b1-4)GlcNAc(b1-3)Gal(b1-4)GlcNAc
Method in brief: as §1

[39] = molecular target: Neu5Gc(a2-8)Neu5Gc(a2-6)Gal(b1-4)GlcNAc
Method in brief: as §1

[40] = molecular target: Neu5Gc(b2-6)Gal(b1-4)GlcNAc
Method in brief: as §1

B1: Pbx1CASH domain (Cryptococcus neoformans) (protein)
chain: MDETKPLWGNPRADGISLACKDSIVERNVVYDATDGAIVLFGSAGSTVKNNHVYARTRVILGGINLVDYEPWDGDYTNVKVHHNHLYALGRYFKVGIVIGPASWSDDTESVVHSASVTDNEFSGGYWGYGIVVASAKNFEVLRNKVIWDGEQGVARFSGVPGS
[1]
  glycan array binding signal (z-score): 1.06
[2]
  glycan array binding signal (z-score): 1.28
[3]
  glycan array binding signal (z-score): -0.309
[4]
  glycan array binding signal (z-score): -0.977
[5]
  glycan array binding signal (z-score): -0.506
[6]
  glycan array binding signal (z-score): -0.543
[7]
  glycan array binding signal (z-score): 1.59
[8]
  glycan array binding signal (z-score): 0.559
[9]
  glycan array binding signal (z-score): -0.679
[10]
  glycan array binding signal (z-score): -0.597
Neu5Ac(a2-6)GalNAc
  glycan array binding signal (z-score): -0.898
[11]
  glycan array binding signal (z-score): -0.673
[12]
  glycan array binding signal (z-score): 0.309
[13]
  glycan array binding signal (z-score): -0.681
[14]
  glycan array binding signal (z-score): -0.307
Neu5Ac(a2-8)Neu5Ac
  glycan array binding signal (z-score): -0.314
[15]
  glycan array binding signal (z-score): -0.877
[16]
  glycan array binding signal (z-score): 0.658
[17]
  glycan array binding signal (z-score): -0.539
[18]
  glycan array binding signal (z-score): -0.081
[19]
  glycan array binding signal (z-score): 0.76
[20]
  glycan array binding signal (z-score): -0.908
[21]
  glycan array binding signal (z-score): -0.593
[22]
  glycan array binding signal (z-score): -0.652
[23]
  glycan array binding signal (z-score): -0.815
[24]
  glycan array binding signal (z-score): -0.174
[25]
  glycan array binding signal (z-score): 1.35
[26]
  glycan array binding signal (z-score): -0.353
[27]
  glycan array binding signal (z-score): -0.851
Neu5Ac(b2-6)GalNAc
  glycan array binding signal (z-score): -0.772
[28]
  glycan array binding signal (z-score): -0.534
[29]
  glycan array binding signal (z-score): -0.845
[30]
  glycan array binding signal (z-score): -0.691
[31]
  glycan array binding signal (z-score): -0.469
Neu5Gc(a2-3)Gal(b1-4)Glc
  glycan array binding signal (z-score): -0.113
[32]
  glycan array binding signal (z-score): -0.444
[33]
  glycan array binding signal (z-score): -0.519
[34]
  glycan array binding signal (z-score): -0.398
[35]
  glycan array binding signal (z-score): -0.114
Neu5Gc(a2-6)GalNAc
  glycan array binding signal (z-score): -0.031
[36]
  glycan array binding signal (z-score): -0.005
[37]
  glycan array binding signal (z-score): -0.561
[38]
  glycan array binding signal (z-score): -0.119
[39]
  glycan array binding signal (z-score): 0.346
[40]
  glycan array binding signal (z-score): 2.35
